Assay results from article PMC5440646, “T Cell Costimulation by CD6 Is Dependent on Bivalent Binding of a GADS/SLP-76 Complex” (Molecular and Cellular Biology, 2017).

The chains behind the UniProt entries cited, without tags or fusion partners.
UniProt P62993: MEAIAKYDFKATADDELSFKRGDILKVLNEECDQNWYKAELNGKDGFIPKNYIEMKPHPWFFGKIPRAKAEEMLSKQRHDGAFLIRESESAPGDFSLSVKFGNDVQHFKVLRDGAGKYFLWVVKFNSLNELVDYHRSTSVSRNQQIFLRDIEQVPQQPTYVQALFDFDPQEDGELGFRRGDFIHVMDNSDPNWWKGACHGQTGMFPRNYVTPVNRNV

Legend:
[1] = target: T1, CD6 pY629 peptide (biotin-SSGEWpYQNFQP) (human); experiment: affinity purification with mass spectrometry; biotinylated peptide (50 μg) on Dynabeads M-280 streptavidin, multivalent; lysates of Jurkat T cells stimulated with ionomycin and PMA for 24 h; 18 h at 4°C; washed with 0.1% Triton X-100 in PBS; only the target purified
T1 sequence (peptide, biotin on the N-terminus; phosphotyrosine at Y629): SSGEWYQNFQP

[2] = target: T2, control peptide (biotin-…); experiment: as above
T2 sequence (peptide, biotin on the N-terminus): HVDNEYSQPPRNS

binding [1]: binds | binding [2]: no binding
Substance: growth factor receptor-bound protein 2 (GRB2), endogenous (from UniProt P62993 1-217)

No constants are given. Whether binding was seen depends on the method and setting. Binding seen in cells or lysates may run through a third protein. These calls come from enrichment with a bait or labelling near it, and not all partners need be listed. For some assays here: A no says only that the protein was not detected with the bait.
